A short description of this experiment: qHTS Assay for Lipid Storage Modulators in Drosophila S3 Cells.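 As to cell number change: cells counted by Cell Tracker Red CMTPX staining in the red channel.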 Particulars: BODIPY lipid droplet fluorescence, 18-24 h; for cell number change: measured here: cell count max response, cells fed with added oleic acid. In outline:
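Drosophila S3 cells loaded with oleic acid (400 uM, as added) and compounds at several concentrations; lipid droplets imaged by 488-nm laser-scanning cytometry, 500–530 nm intensity and object ratio to cell channel. Percent activity normalized to 20 uM Triacsin C.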
A general note: In qHTS, concentration-response curves come from the screen itself.

Where [1] appears, read: measured here: lipid fluorescence (Fed channel) AC50, cells fed with added oleic acid.
The mark [2] stands for this setting: measured here: cell number channel AC50, cells fed with added oleic acid.

Each structure is given as a SMILES string. Some of the results follow. These are further read-outs of the screen, such as a control signal, another cell line or another target. No call is given for them. Compounds called inactive in the main read-out are mostly missing here. Words in brackets tell the shape of the fitted curve; partial curves, single points and poor fits give uncertain potencies.

Usually AC50 stands for the midpoint of the concentration-response curve, whichever way the signal moves. The low end stands for activity at low concentration, the high end for activity only at high concentration. On to `Cc1ccc(S(=O)(=O)NCC(=O)NCC(=O)OCC(=O)N2CC(=O)Nc3ccccc32)cc1C`, for which the cell number change was -11.9%. Further, the AC50 under setting [1] is 0.461 µM [falling, full curve].
Consider `COc1cccc(NC(=O)CN2CCC(C)CC2)c1`, for which the cell number change was -17%. Further, the AC50 under setting [2] is 0.731 µM [falling, full curve, poor fit]. Also, the AC50 under setting [1] is 0.92 µM [falling, full curve].
On to `O=C(c1ccc(CS(=O)(=O)c2ccc(Br)cc2)o1)N1CCCC1`, for which the cell number change was -30.3%. Further, the AC50 under setting [2] is 29.1 µM [falling, single point]. The AC50 under setting [1] is 0.116 µM [rising, full curve, poor fit].
Turning to `O=C(CSC1=Nc2ccccc2C2CC=NN12)Nc1ccc(F)cc1Cl` (stereo unspecified), the cell number change is -55%.
For the compound `O=C(NCc1ccccc1)C1CCN(C(=O)NCc2ccccc2)CC1`, the cell number change was -44.9%. Also, under setting [2], the AC50 is 29.1 µM [falling, single point].
Consider `CC(=O)CCS(=O)(=O)c1ccc(NC(C)=O)cc1`, for which the cell number change was -25.8%. In addition, the AC50 under setting [2] is 0.517 µM [falling, full curve, poor fit]. Further, the AC50 under setting [1] is 6.51 µM [falling, partial curve].
As to `S=C(NCc1ccccc1)N1CCN(C(=S)NCc2ccccc2)CC1`, the cell number change was -15.2%. For the same compound, the AC50 under setting [1] was 6.51 µM [rising, partial curve, poor fit].
For the compound `O=C(COC(=O)CNS(=O)(=O)c1c(F)cccc1F)NC(=O)NC1CCCCC1`, the cell number change is -11.3%. Moreover, the AC50 under setting [1] was 0.00461 µM [falling, full curve, poor fit].
`Cc1ccc(S(=O)(=O)N(CC(=O)N/N=C/c2ccco2)c2cc(Cl)cc(Cl)c2)cc1`: the cell number change stood at 9.95%. Further, the AC50 under setting [1] was 1.16 µM [falling, single point].
`CCOc1ccc(CN2CCN(Cc3ccc4cc(F)ccc4n3)CC2CCO)cc1` (stereo unspecified): the cell number change was -14.2%. Further, under setting [1], the AC50 was 29.1 µM [falling, single point].
For `CC(C)(CNC(=O)c1ccc(NS(=O)(=O)c2ccc(F)c(F)c2)cc1)N1CCOCC1`, the AC50 under setting [2] is 0.731 µM [rising, full curve].
As for `Cc1ccc(CS(=O)Cc2ccc(C(=O)NCc3ccc4c(c3)OCO4)o2)cc1` (stereo unspecified), the cell number change was found to be 2.29%. In addition, the AC50 under setting [1] was 6.51 µM [rising, single point].
Turning to `N#C/C(=C\c1ccc(-c2cccc(C(F)(F)F)c2)o1)C(=O)Nn1cnnc1`, the cell number change is -17.7%.
For the compound `CCOC(=O)NC(C(F)(F)F)(C(F)(F)F)P(=O)(c1ccccc1)c1ccccc1`, the cell number change is -1.58%. The AC50 under setting [1] was 0.00461 µM [rising, full curve, poor fit].
As for `Cc1ccc(C2=NS(=O)(=O)N(C)C(C(=O)NCc3ccccc3)=C2)cc1`, the cell number change is -2.59%. In addition, the AC50 under setting [1] was 16.4 µM [falling, single point].
On to `CC(C)(C)C(=O)Nc1ccc(NC(=O)c2ccco2)nc1`, for which the cell number change is 5.56%. The AC50 under setting [1] was 0.58 µM [rising, single point].
Take `O=C(c1ccc(N2CCCC2=O)cc1)N1CCN(c2ccccc2O)CC1`: the cell number change was found to be 13.6%. Also, the AC50 under setting [1] was 0.116 µM [falling, full curve, poor fit].
In the case of `Cc1ccc(C(=O)NCC(=O)N2CCC3(CC2)NCCc2[nH]cnc23)cc1C`, the cell number change was -27.4%.
In the case of `O=[N+]([O-])c1ccccc1S(=O)(=O)Oc1ccc(C(=S)N2CCOCC2)cc1`, the cell number change was determined as 9.84%. Further, the AC50 under setting [1] is 11.6 µM [rising, partial curve].
For `COc1ccc(N2C(=O)CSCC2=O)cc1OC`, the cell number change stood at 33.1%. Besides, the half-maximal activity concentration (AC50) under setting [2] was 3.26 µM [rising, partial curve, poor fit].
`CCOC(=O)N1CCN(C(=O)CCN2C(=O)COc3ccc(C)cc32)CC1`: the half-maximal activity concentration (AC50) by setting is: under setting [2], 6.51 µM [falling, single point]; under setting [1], 4.61 µM [falling, partial curve].
As to `Cc1c(OCc2nn[nH]n2)ccc2c(-c3ccccc3)cc(=O)oc12`, the cell number change stood at 3.75%. The AC50 under setting [2] is 0.651 µM [falling, single point].
Regarding `Cc1coc2c(C)c3oc(=O)c(CCC(=O)NCc4ccccn4)c(C)c3cc12`, the cell number change is -21.2%. Also, the AC50 under setting [1] was 0.731 µM [falling, full curve, poor fit].
For `COc1cc(CNC(C)(C)CO)ccc1OCC(=O)Nc1ccc(Br)cc1`, the cell number change is -13.3%. The AC50 under setting [1] is 1.64 µM [falling, full curve, poor fit].
Turning to `CCCOc1ccc2cc(C(=O)NCc3ccccc3)c(=O)oc2c1`, the AC50 under setting [1] is 6.51 µM [rising, single point].
In the case of `CCC(SC1=N/C(=C/c2ccccc2OC)C(=O)N1c1ccccc1)C(=O)Nc1cc(C)on1` (stereo unspecified), the cell number change stood at 142%. Moreover, the AC50 under setting [1] was 29.1 µM [rising, single point].
As for `COc1cccc(CN=c2c([N+](=O)[O-])nn(-c3ccccc3C)n2O)c1`, the cell number change came out at 15.3%. The AC50 under setting [1] is 0.517 µM [falling, single point].
Consider `COc1cc(/C=N/n2c(C)nnc2C)cc(OC)c1OC`, for which the cell number change amounted to 0.457%. Moreover, the AC50 under setting [1] was 0.058 µM [falling, full curve, poor fit].
Turning to `COC(=O)CN1C(=O)[C@H]2[C@@H](c3ccc(C)o3)N3C(=O)CN(Cc4ccccc4)C(=O)[C@@]3(Cc3ccccc3)[C@H]2C1=O`, the cell number change turned out to be 31.1%. Besides, the AC50 under setting [2] was 2.59 µM [rising, full curve]. In addition, the half-maximal activity concentration (AC50) under setting [1] was 29.1 µM [rising, single point].
As for `C/C(O)=C/c1nc2ccccc2[nH]c1=O`, the cell number change came to 0.987%. The AC50 under setting [1] was 4.11 µM [rising, single point].
For the compound `Cc1ccccc1NC(=O)CN1C(=O)COc2ccc(S(=O)(=O)N3CCCC3)cc21`, the cell number change amounted to 51.1%. For the same compound, the half-maximal activity concentration (AC50) under setting [2] is 29.1 µM [rising, single point]. In addition, the AC50 under setting [1] is 25.9 µM [rising, single point].
In the case of `COc1ccc(N2C(=O)CC(NNc3ncc(Cl)cc3Cl)C2=O)cc1` (stereo unspecified), the half-maximal activity concentration (AC50) reads like this: under setting [2], 0.82 µM [rising, full curve]; under setting [1], 20.6 µM [rising, partial curve].
Regarding `COc1ccccc1C(=O)N/C(=C\c1ccc2c(c1)OCO2)C(=O)NCCc1nc2ccccc2[nH]1`, the cell number change was -39.8%. Moreover, under setting [2], the AC50 is 1.84 µM [falling, partial curve, poor fit]. For the same compound, under setting [1], the AC50 was 4.61 µM [rising, partial curve].
As for `O=c1c2cc(Cl)ccc2nc(-c2ccccc2)n1O`, the cell number change is -35.6%. The half-maximal activity concentration (AC50) under setting [2] is 5.8 µM [falling, full curve]. For the same compound, under setting [1], the half-maximal activity concentration (AC50) is 3.26 µM [falling, single point].
On to `Cc1ccc(NS(=O)(=O)c2ccc3c(c2)CC(=O)N3)cc1Cl`, for which the AC50 under setting [1] was 0.103 µM [rising, full curve, poor fit].

Values taken from PubChem BioAssay AID2685 (National Center for Advancing Translational Sciences (NCATS), 2010).
